No constants are given. Whether binding was seen depends on the method and setting. Binding seen in cells or lysates may run through a third protein. These calls come from enrichment with a bait or labelling near it, and not all partners need be listed.
Biological target: T1, USP13, overexpressed in LM3 cells for IP-MS (UniProt Q92995)
T1 sequence: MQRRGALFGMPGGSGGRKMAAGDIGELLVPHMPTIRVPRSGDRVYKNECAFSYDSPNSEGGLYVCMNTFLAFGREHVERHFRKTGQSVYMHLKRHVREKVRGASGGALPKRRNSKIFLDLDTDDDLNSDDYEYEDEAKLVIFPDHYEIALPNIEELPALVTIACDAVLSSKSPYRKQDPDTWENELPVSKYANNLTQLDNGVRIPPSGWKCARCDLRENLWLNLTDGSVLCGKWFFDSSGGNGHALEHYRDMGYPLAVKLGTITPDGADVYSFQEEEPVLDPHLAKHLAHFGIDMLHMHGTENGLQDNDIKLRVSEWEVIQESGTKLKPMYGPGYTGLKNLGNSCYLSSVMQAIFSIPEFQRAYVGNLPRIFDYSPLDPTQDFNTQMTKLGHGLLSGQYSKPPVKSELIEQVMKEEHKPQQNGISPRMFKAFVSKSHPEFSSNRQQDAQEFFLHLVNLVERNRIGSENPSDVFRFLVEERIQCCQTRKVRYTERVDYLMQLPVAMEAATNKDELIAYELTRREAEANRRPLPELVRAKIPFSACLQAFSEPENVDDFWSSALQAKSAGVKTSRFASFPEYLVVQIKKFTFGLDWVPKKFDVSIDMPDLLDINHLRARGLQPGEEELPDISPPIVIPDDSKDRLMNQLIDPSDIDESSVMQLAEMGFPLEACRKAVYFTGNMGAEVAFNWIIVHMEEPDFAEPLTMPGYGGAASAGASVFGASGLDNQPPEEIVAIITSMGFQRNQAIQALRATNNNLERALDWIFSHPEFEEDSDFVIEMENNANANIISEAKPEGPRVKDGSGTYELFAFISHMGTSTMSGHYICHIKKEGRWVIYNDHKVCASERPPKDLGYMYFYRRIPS
Assay: affinity purification with mass spectrometry; IP-MS in LM3 cells after USP13 overexpression and immunoprecipitation of USP13

Sequences of proteins named here, by UniProt entry; tags and fusion partners are left off.
UniProt P53396: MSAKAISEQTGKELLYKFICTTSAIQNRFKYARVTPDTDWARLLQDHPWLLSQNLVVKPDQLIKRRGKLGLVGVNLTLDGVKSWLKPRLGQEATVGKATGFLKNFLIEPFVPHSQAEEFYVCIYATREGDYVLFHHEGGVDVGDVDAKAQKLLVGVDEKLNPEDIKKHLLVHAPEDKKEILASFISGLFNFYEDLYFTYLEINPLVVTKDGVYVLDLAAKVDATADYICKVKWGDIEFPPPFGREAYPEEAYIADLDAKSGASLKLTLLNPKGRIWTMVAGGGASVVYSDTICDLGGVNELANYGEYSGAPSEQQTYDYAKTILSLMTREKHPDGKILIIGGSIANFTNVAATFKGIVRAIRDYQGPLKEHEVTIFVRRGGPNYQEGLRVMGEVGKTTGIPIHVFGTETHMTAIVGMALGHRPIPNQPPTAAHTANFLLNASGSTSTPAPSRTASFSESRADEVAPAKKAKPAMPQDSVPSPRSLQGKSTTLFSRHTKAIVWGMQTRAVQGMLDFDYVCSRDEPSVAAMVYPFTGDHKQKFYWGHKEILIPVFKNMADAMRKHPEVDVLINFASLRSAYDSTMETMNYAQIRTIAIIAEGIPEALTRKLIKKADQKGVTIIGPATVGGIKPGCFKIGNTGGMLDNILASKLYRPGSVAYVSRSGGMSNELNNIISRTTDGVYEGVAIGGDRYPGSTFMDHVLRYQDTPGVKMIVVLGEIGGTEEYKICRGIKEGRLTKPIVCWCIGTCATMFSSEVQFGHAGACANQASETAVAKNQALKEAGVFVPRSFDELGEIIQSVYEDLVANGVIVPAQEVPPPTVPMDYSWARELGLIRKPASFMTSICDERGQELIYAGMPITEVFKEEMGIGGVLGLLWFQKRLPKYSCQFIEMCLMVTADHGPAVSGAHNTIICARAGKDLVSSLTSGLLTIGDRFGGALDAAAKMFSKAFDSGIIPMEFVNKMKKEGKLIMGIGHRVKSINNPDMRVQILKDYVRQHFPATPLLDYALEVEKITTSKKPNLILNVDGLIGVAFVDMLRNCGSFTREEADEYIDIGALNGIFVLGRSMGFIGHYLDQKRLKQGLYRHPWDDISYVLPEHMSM

- binding: binds
Substance: ATP citrate lyase (ACLY), endogenous (from UniProt P53396 1-1101) (enzyme)
